# Reference: PubChem BioAssay AID540256 (National Center for Advancing Translational Sciences (NCATS), 2011)
# Among all 300,000 compounds or so, about 3,700 (1.2%) were called active. This list was built around the results that the source calls inconclusive (neither active nor inactive); the mix of calls is not that of the screen. Calls come from the whole dose curve; tested in HEK293 cells. Where the call is inconclusive, the potency comes from a doubtful curve fit.
# Experiment: qHTS for Inhibitors of binding or entry into cells for Lassa Virus; note: nearly all actives have a fitted effect of over 50% in size
# Details: Lassa virus pseudotype entry inhibition, cell reporter; series mostly up to 37.9 µM
# Potency is the fitted concentration of half-maximal effect.
row,SMILES,Potency
1,Cc1ccc2cccc(NC(=S)NC(=O)c3ccnn3C)c2n1,"inconclusive: 23.1 µM [activator, partial curve, poor fit]"
2,CC(C)(C)c1ccc(C(=O)NCc2cccnc2)cc1,"inconclusive: 16.4 µM [activator, partial curve, poor fit]"
3,COC(=O)c1ccc(NC(=O)CSCC(=O)OCC(=O)c2ccc(Br)cc2)cc1,"inconclusive: 1.3 µM [activator, single point]"
4,CN(Cc1ccccc1)c1nc2c(c(=O)[nH]c(=O)n2C)n1CCSc1nc2ccccc2[nH]1,"inconclusive: 2.24 µM [inhibitor, full curve, poor fit]"
5,O=C(OC1CCOC1=O)c1ccc(-c2nc3ccccc3s2)s1 (centres undefined),"inconclusive: 4.47 µM [inhibitor, partial curve]"
6,Nc1nc(C(=O)N2CCOCC2)nn1S(=O)(=O)c1ccc(Cl)cc1,inactive
7,Cn1c(NCC(O)c2ccccc2)nc2c1c(=O)n(Cc1ccc(Cl)c(Cl)c1)c(=O)n2C (centres undefined),"inconclusive: 35.5 µM [inhibitor, single point]"
8,O=C(c1cc(-c2ccccc2O)on1)N1CCCCC1,"inconclusive: 1.58 µM [activator, partial curve, poor fit]"
9,COc1cc(-c2cc(C(=O)Nc3nc4ccccc4s3)c3ccccc3n2)cc(OC)c1OC,"inconclusive: 35.5 µM [inhibitor, single point]"
10,Cc1ccc(C(=O)NCCCc2ccccc2)c(C)c1,"inconclusive: 35.5 µM [inhibitor, single point]"
11,CN1CCN(C(=O)CCN2C(=O)/C(=C\c3ccc(Cl)cc3Cl)SC2=S)CC1,"inconclusive: 35.5 µM [inhibitor, partial curve, poor fit]"
12,O=C1NC(=O)C(CCc2ccncc2)(CCc2ccccn2)C(=O)N1c1ccc(Br)cc1 (centres undefined),"inconclusive: 15.8 µM [inhibitor, partial curve, poor fit]"
13,Clc1ccc(CN2CCC(CNc3ncnc4onc(-c5ccc(Cl)cc5)c34)CC2)cc1,"inconclusive: 22.4 µM [inhibitor, single point]"
14,COc1ccc(C(C(=O)NC(C)(C)C)N(CCO)C(=O)CCC(=O)Nc2cc(C)on2)cc1 (centres undefined),"inconclusive: 5.62 µM [inhibitor, single point]"
15,O=C(c1cccs1)N1CCCC(c2nc3c(nnn3Cc3ccccc3Cl)c(=O)[nH]2)C1 (centres undefined),"inconclusive: 11.2 µM [inhibitor, partial curve, poor fit]"
16,Cc1cc(C)n2nc(SCC3COc4ccccc4O3)nc2n1 (centres undefined),inactive
17,Oc1ccc(/C=N/N2CCCCC2)cc1O,"inconclusive: 10 µM [activator, partial curve, poor fit]"
18,O=C(c1ccccc1)c1ccc2nc(-c3ccco3)c(-c3ccco3)nc2c1,"inconclusive: 35.5 µM [inhibitor, single point]"
19,O=C(/C=C/c1ccco1)NC(=S)Nc1cccc([N+](=O)[O-])c1,"inconclusive: 18.4 µM [inhibitor, partial curve, poor fit]"
20,CC(C)NC(=O)C(=O)Nc1ccc2c(c1)N(S(=O)(=O)c1cccs1)CCC2,"inconclusive: 11.2 µM [inhibitor, partial curve, poor fit]"

row,SMILES,Potency
1,O=S(=O)(NC1c2cccc3cccc(c23)C1Sc1ncccn1)c1ccc(Cl)cc1 (centres undefined),"inconclusive: 29.1 µM [inhibitor, single point]"
2,COc1ccccc1NC(=O)c1c(NC(=O)COc2ccccc2)sc2c1CCCCC2,"inconclusive: 35.5 µM [activator, single point]"
3,COc1ccc(C(C(=O)NC2CCCCC2)N(C(=O)c2sc(C)nc2C)c2ccc(OC)cc2)cc1 (centres undefined),"inconclusive: 2.31 µM [inhibitor, partial curve]"
4,CNC(=O)C1CCC(Cn2c(=O)c3sccc3n(CC(=O)NCc3ccc(OC)cc3)c2=O)CC1 (centres undefined),inactive
5,O=C(CSc1ccccc1F)NC1CCS(=O)(=O)C1 (centres undefined),"inconclusive: 5.62 µM [activator, single point]"
6,COc1cccc(C(=O)CSc2nnnn2C2CCCCC2)c1,"inconclusive: 25.9 µM [activator, single point]"
7,Nc1ncnc2c1cnn2C1CCCCC1,inactive
8,CCCCNc1nc(Oc2ccc(=O)n(C)n2)nc(N2CCOCC2)n1,inactive
9,O=C(Nc1ccc(N2CCOCC2)c(S(=O)(=O)Nc2ccccc2Cl)c1)c1ccc(F)cc1,"inconclusive: 14.1 µM [inhibitor, single point]"
10,O=C1Nc2ccc(Cl)cc2/C1=C/C1CC=CCC1 (centres undefined),"inconclusive: 35.5 µM [inhibitor, single point]"
11,CC(=O)/C(C#N)=C1\NC(=O)C(Cc2ccc(C)c(Cl)c2)S1 (centres undefined),"inconclusive: 4.47 µM [inhibitor, full curve, poor fit]"
12,CC(=O)c1cccc(NC(=O)CCc2c(C)nc3c(c(C)nn3-c3ccccc3)c2C)c1,"inconclusive: 1.26 µM [activator, partial curve, poor fit]"
13,CC(OC(=O)c1ccccn1)C(=O)Nc1nc(-c2ccc(F)c(F)c2)cs1 (centres undefined),"inconclusive: 10 µM [inhibitor, partial curve, poor fit]"
14,Cc1cc(C)cc(NC(=O)c2cc(S(=O)(=O)N3CCC(C)CC3)cn2C)c1,inactive
15,Cc1ccc(C(=O)/C=C2\NCCNC2=O)cc1,"inconclusive: 0.708 µM [activator, single point]"
16,Cc1ccc2c(C)c(C(=O)N(C)C(C)c3ccon3)oc2c1C (centres undefined),inactive
17,COc1ccc(C(=O)C2CCCN(Cc3cccn3-c3ccccn3)C2)cc1F (centres undefined),"inconclusive: 11.2 µM [inhibitor, partial curve, poor fit]"
18,COc1ccccc1NNC(=O)c1cc(C(C)(C)C)nn1Cc1ccccc1,"inconclusive: 20 µM [inhibitor, partial curve, poor fit]"
19,Cc1cccc(NC(=O)CSc2nc3ccccc3nc2N2CCCCC2)c1C,"inconclusive: 11.2 µM [activator, partial curve, poor fit]"

# In another format: entries from further up.
row | SMILES | Potency
13 | CC(OC(=O)c1ccccn1)C(=O)Nc1nc(-c2ccc(F)c(F)c2)cs1 (centres undefined) | inconclusive: 10 µM [inhibitor, partial curve, poor fit]
14 | Cc1cc(C)cc(NC(=O)c2cc(S(=O)(=O)N3CCC(C)CC3)cn2C)c1 | inactive
